Experimental data reported in US6607906B1, “Heterologous G protein coupled receptors expressed in yeast, their fusion with G proteins and use thereof in bioassay” (priority 1994, dated 2003).
For at least one compound, name, drawing or mass did not settle the structure.

Experiments:
porcine SSTR2 = test: Agar plate growth bioassay, yeast expressing porcine SSTR2 (LY474); type: cell-based
rat CCKB receptor = target: T1, rat CCKB receptor (Rattus norvegicus, UniProt P30553); test: Agar plate growth bioassay, yeast expressing CCKB receptor (LY628, LY631); type: cell-based
T1 construct: expressed in transfected cells; host or cells: Saccharomyces cerevisiae LY296 derivatives LY631 (Gpa1-Gαs chimera, pLP122) and LY628 (Gpa1-Gαi2 chimera, pLP121)
T1 sequence (P30553 1-452): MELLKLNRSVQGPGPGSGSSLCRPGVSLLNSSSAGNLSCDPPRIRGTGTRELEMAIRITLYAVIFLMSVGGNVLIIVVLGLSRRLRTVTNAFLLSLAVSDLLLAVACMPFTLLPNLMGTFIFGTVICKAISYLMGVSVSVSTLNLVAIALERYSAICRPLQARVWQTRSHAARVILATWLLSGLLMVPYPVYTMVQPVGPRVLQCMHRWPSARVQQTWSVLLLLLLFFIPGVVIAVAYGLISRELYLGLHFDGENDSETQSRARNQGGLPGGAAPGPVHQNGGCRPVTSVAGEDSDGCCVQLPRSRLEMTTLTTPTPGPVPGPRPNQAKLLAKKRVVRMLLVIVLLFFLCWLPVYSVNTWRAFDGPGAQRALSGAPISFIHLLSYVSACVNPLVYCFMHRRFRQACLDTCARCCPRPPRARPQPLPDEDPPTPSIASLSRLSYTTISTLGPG

`C[C@H](N)C(=O)NCC(=O)N[C@H]1CSSC[C@@H](C(=O)O)NC(=O)[C@H](CO)NC(=O)[C@H]([C@@H](C)O)NC(=O)[C@H](Cc2ccccc2)NC(=O)[C@H]([C@@H](C)O)NC(=O)[C@H](CCCCN)NC(=O)[C@H](Cc2c[nH]c3ccccc23)NC(=O)[C@H](Cc2ccccc2)NC(=O)[C@H](Cc2ccccc2)NC(=O)[C@H](CC(N)=O)NC(=O)[C@H](CCCCN)NC1=O` [S-14] was tested, and the “amount giving a detectable response” value (porcine SSTR2) was 60 pmol, the “diameter of the growth zones, rank order” value (porcine SSTR2) was “S-14=MK678>sandostatin” and the growth response (porcine SSTR2) was “dose-dependent growth response”. For the same compound, the growth response (rat CCKB receptor) was “not observed”.
